No constants are given. Whether binding was seen depends on the method and setting. In cells and extracts the contact can be indirect. These calls come from enrichment with a bait or labelling near it, and not all partners need be listed. Tags and fused reporters may be left off the sequences shown.

The chains behind the UniProt entries cited, without tags or fusion partners.
UniProt Q6PDQ2: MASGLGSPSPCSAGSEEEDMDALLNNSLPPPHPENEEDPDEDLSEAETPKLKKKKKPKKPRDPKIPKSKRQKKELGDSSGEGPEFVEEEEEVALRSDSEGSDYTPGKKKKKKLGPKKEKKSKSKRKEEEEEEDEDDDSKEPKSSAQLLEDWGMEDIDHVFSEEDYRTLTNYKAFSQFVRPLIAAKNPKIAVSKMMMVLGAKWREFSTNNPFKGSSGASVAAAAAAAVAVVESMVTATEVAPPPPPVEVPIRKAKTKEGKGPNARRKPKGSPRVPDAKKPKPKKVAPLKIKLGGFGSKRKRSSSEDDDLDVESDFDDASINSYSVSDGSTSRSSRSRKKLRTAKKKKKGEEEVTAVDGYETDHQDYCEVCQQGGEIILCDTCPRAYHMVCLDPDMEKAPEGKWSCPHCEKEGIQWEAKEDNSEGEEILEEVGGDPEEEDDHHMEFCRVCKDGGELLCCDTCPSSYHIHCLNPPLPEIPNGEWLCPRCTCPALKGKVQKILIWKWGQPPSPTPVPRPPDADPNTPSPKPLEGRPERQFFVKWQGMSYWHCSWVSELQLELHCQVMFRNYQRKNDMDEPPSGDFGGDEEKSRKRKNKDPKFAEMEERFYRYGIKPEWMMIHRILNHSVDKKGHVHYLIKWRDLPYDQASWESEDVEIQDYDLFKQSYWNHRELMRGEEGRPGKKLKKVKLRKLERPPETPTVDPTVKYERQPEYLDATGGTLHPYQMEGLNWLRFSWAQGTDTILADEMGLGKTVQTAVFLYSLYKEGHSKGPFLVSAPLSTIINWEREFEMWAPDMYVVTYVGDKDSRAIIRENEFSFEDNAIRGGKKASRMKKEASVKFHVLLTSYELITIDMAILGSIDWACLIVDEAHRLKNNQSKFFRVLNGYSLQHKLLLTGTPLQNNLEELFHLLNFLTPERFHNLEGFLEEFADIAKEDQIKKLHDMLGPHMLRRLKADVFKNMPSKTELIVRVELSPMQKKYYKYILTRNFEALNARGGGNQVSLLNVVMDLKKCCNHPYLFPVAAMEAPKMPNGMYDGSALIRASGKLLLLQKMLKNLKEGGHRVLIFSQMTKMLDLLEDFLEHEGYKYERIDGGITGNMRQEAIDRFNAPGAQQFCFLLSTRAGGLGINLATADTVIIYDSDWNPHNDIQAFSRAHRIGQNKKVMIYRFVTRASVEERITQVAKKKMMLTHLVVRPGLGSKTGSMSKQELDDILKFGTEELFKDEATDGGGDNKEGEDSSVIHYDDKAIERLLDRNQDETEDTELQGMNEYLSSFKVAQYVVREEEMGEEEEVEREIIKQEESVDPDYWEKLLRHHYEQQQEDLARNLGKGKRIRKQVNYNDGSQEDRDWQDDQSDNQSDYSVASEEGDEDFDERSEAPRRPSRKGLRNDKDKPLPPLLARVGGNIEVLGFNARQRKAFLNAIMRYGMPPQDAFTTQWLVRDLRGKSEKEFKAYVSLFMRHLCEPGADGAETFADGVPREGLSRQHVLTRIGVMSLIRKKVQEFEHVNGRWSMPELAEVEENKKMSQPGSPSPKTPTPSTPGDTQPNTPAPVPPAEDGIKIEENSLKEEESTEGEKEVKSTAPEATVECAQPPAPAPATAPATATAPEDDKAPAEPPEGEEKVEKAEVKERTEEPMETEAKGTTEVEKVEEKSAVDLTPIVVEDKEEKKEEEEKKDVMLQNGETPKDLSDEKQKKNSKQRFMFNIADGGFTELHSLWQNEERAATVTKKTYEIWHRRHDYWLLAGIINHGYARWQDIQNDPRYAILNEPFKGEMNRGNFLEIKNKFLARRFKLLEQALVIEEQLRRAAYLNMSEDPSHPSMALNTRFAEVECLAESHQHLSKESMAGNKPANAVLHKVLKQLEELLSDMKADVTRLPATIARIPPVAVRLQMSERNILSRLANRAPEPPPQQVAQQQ
UniProt O09106: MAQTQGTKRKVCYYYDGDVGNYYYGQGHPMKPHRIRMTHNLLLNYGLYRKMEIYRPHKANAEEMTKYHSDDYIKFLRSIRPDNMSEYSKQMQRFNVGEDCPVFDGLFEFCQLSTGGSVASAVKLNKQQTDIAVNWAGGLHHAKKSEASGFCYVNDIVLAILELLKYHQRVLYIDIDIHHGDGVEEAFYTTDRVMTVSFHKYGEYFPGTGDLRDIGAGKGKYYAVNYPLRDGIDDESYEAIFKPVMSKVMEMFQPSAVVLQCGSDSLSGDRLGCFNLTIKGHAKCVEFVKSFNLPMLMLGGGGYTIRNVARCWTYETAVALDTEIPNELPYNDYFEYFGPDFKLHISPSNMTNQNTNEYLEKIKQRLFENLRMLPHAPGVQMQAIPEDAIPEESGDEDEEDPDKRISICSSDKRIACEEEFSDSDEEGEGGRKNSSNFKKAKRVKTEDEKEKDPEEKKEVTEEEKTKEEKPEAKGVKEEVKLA

Two substances from publication doi:10.1101/2020.07.29.223594 can be followed below.

For the assay, the target named is T1, mouse APOBEC2 fused to BirA-Flag (mouse) (UniProt Q9WV35).
T1 sequence: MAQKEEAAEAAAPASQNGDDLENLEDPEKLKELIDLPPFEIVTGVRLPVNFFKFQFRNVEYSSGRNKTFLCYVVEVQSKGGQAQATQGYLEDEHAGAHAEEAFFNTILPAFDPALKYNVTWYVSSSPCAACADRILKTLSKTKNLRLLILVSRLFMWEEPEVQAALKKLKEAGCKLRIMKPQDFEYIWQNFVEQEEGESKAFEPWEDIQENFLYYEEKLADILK
Briefly: proximity labelling.

For “Chromodomain-helicase-DNA-binding protein 4 (CHD4) (from UniProt Q6PDQ2 1-1915)”, the binding result is “binds”.

With “histone deacetylase 1 (HDAC1) (from UniProt O09106 1-482)”, the binding result was “binds”.
